This is an account of results in patent US20070248617A1 (published 2007).

Chains of the proteins cited; added tags and fusions are not shown. Lines headed by an entry give the natural chain unless they say otherwise; changes in a name come on top.
UniProt O35235: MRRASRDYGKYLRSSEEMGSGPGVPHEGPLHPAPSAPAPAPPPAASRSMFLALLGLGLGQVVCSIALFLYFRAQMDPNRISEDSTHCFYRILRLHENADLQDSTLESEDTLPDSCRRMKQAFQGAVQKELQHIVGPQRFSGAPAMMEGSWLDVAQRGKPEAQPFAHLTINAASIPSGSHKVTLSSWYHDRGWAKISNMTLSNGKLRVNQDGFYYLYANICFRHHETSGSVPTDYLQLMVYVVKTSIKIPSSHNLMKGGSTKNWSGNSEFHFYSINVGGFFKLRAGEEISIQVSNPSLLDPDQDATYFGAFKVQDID

No constants are given. Whether binding was seen depends on the method and setting. Some results given as binding are weak or reduced against the parent protein; the word gives no strength. Sequences can lack the tags named with a protein.

This experiment has as its target mouse RANKL protein (mouse) (UniProt O35235). Description: ELISA, mouse RANKL coated at 10 µg/ml, serial dilutions of mouse RANK-hFc, anti-hFc-HRP detection.

B1: recombinant mouse RANK-hFc fusion protein (Fc fusion, UniProt O35305 31-214, looked up, not shown: a dimerising Fc or GST)
chain: VTPPCTQERHYEHLGRCCSRCEPGKYLSSKCTPTSDSVCLPCGPDEYLDTWNEEDKCLLHKVCDAGKALVAVDPGNHTAPRRCACTAGYHWNSDCECCRRNTECAPGFGAQHPLQLNKDTVCTPCLLGFFSDVFSSTDKCKPWTNCTLLGKLEAHQGTTESDVVCSSSMTLRRPPKEAQAYLPS
Consider B1, for which the binding entry is recorded as “binds”.
